Results as given in PMC10367554.

Amino acid sequences for entries named in this document (tags omitted).
UniProt Q04695: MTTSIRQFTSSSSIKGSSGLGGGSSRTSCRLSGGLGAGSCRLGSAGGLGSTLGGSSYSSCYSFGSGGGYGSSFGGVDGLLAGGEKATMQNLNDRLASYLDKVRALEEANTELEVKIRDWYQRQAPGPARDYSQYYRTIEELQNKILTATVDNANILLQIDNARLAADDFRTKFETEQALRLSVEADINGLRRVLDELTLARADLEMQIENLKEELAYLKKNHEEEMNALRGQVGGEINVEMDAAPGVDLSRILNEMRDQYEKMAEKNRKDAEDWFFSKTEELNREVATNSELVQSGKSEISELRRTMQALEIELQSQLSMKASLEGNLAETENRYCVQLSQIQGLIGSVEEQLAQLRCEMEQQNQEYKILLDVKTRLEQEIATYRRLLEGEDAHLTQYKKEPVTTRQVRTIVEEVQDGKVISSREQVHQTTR
UniProt P06733: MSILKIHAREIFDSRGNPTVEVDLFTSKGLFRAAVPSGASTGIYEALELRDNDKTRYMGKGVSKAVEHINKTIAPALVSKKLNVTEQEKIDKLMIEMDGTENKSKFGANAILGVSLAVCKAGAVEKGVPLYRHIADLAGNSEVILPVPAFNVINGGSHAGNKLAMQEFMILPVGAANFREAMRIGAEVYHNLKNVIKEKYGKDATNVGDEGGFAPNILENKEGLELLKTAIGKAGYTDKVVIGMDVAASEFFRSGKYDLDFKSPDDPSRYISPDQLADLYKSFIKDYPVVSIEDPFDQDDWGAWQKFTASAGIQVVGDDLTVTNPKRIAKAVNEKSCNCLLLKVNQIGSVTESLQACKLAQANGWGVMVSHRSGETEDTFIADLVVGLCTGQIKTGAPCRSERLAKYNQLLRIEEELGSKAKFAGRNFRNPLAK

Molecular target: Keratin 17, overexpressed in K17-overexpressing KCs (UniProt Q04695)
Assay: affinity purification with mass spectrometry; Co-IP combined with mass spectrometry in K17-overexpressing KCs

α-enolase (from UniProt P06733 1-434) (enzyme)
binding: binds

No constants are given. Whether binding was seen depends on the method and setting. In cells and extracts the contact can be indirect. These calls come from enrichment with a bait or labelling near it, and not all partners need be listed.
